Data as given in patent US8637467B2, “Pharmaceutical being used for treating cancer and fibrosis disease and the composition and uses thereof” (Wuxi MTLH Biotechnology Co., Ltd., priority 2008, dated 2014).

Tested on: Rat CC14 liver damage model
Assay: Rat CC14 liver damage model (chronic liver fibrosis)
Format: in vivo, SD rat
Method: To evaluate the protective effect of peptide SEQ ID NO:1 on liver damage, we used chronic liver fibrosis model (rat CC14 model) for efficacy evaluation.
Rat CC14 liver damage model
(1) Control group: saline, sc, 2 ml/kg, 10 rats
(2) model group: 40% CC14, sc, 2 ml/kg, 17 rats
(3) Gan-li-xin group: 25 mg/kg, iv, 10 ml/kg, 15 rats
(4) Prevention, high dose group: 50 μg peptide SEQ ID NO:1/kg, iv, 10 ml/kg, 17 rats
(5) Prevention, low dose group: 10 μg peptide SEQ ID NO:1/kg, iv, 10 ml/kg, 17 rats
(6) Treatment, high dose group: 100 μg peptide SEQ ID NO:1/kg, iv, 10 ml/kg, 17 rats
(7) Treatment, high dose group: 20 μg peptide SEQ ID NO:1/kg, iv, 10 ml/kg, 17 rats
Except for control group, inject 40% CC14 subcutaneously twice (Tuesday, and Friday) every week in Group (2) to (6), drug volume (0.2 ml/100 g, the first time 0.5 ml/100 g). CC14 Model construction is 6 weeks. Parallel to the model construction, inject intravenously peptide SEQ ID NO:1 at 50 μg/kg and 10 μg/kg in group (4) and (5), respectively, once a day for 6 weeks. For Group (3), (6), and (7), starting from week 5, inject Gan-li-xin 25 mg/kg, peptide SEQ ID NO:1 at 100 μg/kg and 20 μg/kg, respectively, once a day, continuously for 2 weeks.
All rats were weighed once a week during model construction and drug injection. According to weight, the dose of drugs is adjusted. 24 hours after the last time of CC14 injection, liver weight parameters were examined.
Blood was extracted from femoral artery and serum was separated. The following parameters were examined: serum alanine aminotransferase (ALT), aspartate aminotransferase (AST), Bilirubin (TB), Alkaline phosphatase (ALP), total protein (TP), albumin (ALB), globulin (G), albumin/globulin ratio (A/G), glucose (GLU), total cholesterol (TCH), triglyceride (TG).
Liver homogenate: to examine cholesterol (TCH), triglyceride (TG), alanine aminotransferase (ALT), and aspartate aminotransferase (AST).
[…], dry at 110 C, examine Hydroxyproline (HPA).
Part of the liver is fixed in formalin for histology examination.

Row | Compound | weight (Prevention, High dose 50 μg/kg iv, once a day for 6 weeks) | weight (Prevention, low dose 10 μg/kg iv, once a day for 6 weeks) | weight (Treatment, High dose 100 μg/kg iv, once a day for 2 weeks from week 5) | weight (Treatment, low dose 20 μg/kg iv, once a day for 2 weeks from week 5) | weight (Gan-li-xin 25 mg/kg iv, once a day for 2 weeks from week 5)
1 | SKVTKKYHEVLQLRPKTGVRGLHKSLTDVALEHHEECDCVCRGSTGG-OH (cysteines drawn unpaired) [Peptide SEQ ID NO:1] | 281 ± 53.7 g | 276.4 ± 49.6 g | 246.4 ± 54.2 g | 289.4 ± 69.6 g | –
2 | CC1(C)[C@@H](O[C@H]2O[C@H](C(=O)O)[C@@H](O)[C@H](O)[C@H]2O[C@@H]2O[C@H](C(=O)O)[C@@H](O)[C@H](O)[C@H]2O)CC[C@]2(C)[C@H]3C(=O)C=C4[C@@H]5C[C@@](C)(C(=O)O)CC[C@]5(C)CC[C@@]4(C)[C@]3(C)CC[C@@H]12.N.N [Gan-li-xin, Diammonium glycyrrhizinate, reference compound] | – | – | – | – | 269.2 ± 71.3 g

Where no end group is shown, it is not given here.
